Laboratory results published in patent US12138267B2, “Methods of treating respiratory depression modulated by a non-opioid agent” (Enalare Therapeutics Inc., priority 2021, dated 2024).
Where two headings read alike, the source gives them in different places.

Test system: healthy participants

CCCNc1nc(NCCC)nc(N(C)OC)n1 [Compound A]
SpO2 during hypoxic measurements (Compound A high dose): 80.4-84.2% | SpO2 during hypoxic measurements (Compound A low dose): 81.2-83.7%
